Measurements: patent US8142769B2, “Preparation and xenotransplantation of porcine islets” (Diabcell Pty Ltd, priority 2000, dated 2012)
For at least one compound, name, drawing or mass did not settle the structure.

Test system: porcine islets
Assay: Static glucose stimulation (SGS): in vitro insulin secretion of porcine islets in culture
Format: cell-based
From the text: Static glucose stimulation (SGS) is used to assess in vitro function of the porcine islets by exposing them to low and high concentrations of glucose and theophylline. Determination of the in vitro insulin secretory capacity is undertaken on both free islets (after 3 days in culture) and after their subsequent encapsulation.
Keep the cells 3 days in culture before Static Glucose Stimulation (SGS). SGS involves exposure of the cells to low and high concentration of glucose to check insulin production. […]
Islet endocrine function was assessed after 3 days in culture via static glucose stimulation.

Structure (SMILES): NCC(=O)N1CCC[C@H]1C(=O)N[C@@H](CCC(=O)O)C(=O)O [GPE, glycine-proline-glutamate, reference compound]
- Concentration in culture sufficient to produce optimal response during glucose challenge (GPE tested at 0.01, 0.1 and 1.0 ug/ml): 0.01 µg/mL
- Increase of insulin response to glucose compared with the control cells (neonatal porcine islets in culture exposed to GPE): up to 11.5
- Stimulation Index (neonatal porcine islets in culture with GPE, control 13.3): 24.8
